Assay results as given in PubChem BioAssay AID651640 (Broad Institute, 2012).
Screen size: about 350,000 compounds; about 6,000 (1.7%) were called active. Inconclusive means that the source gave no clear call. Such entries were picked first, then a sample of the others. No stated cut-off is given here; in the data, active means CPE inhibition above about 20% (passing the limit was not always enough); inconclusive means no clear call, values can overlap the other calls; tested in BHK-21 cells.

experiment: protection of cells from dengue 2 killing – plate reader, single concentration, primary screen (AID 651640); settings: DENV2-infected cells, cytopathic effect rescue, at 9.99 µM, hits give high values;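 further: 0% = median of neutral control wells and 100% = median of positive control wells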

SMILES	CPE inhibition
C[C@@H]1CN([C@@H](C)CO)C(=O)c2cc(-c3ccc(F)cc3)cnc2O[C@@H]1CN(C)C(=O)NC1CCCC1	inactive: 5.64%
C[C@@H]1CN([C@@H](C)CO)C(=O)c2cc(C3=CCCCC3)cnc2O[C@@H]1CN(C)C(=O)Cc1ccccc1	active: 45.7%
O=C(Cc1ccc(Br)cc1)N1CCOCC1	inconclusive: 30%
COc1ccc2c3c([nH]c2c1)[C@@H](CO)N(C(=O)CC1CC1)CC31CN(Cc2ccncc2)C1	inconclusive: 37.8%
CC(C)(C)OC(=O)N1CCN(C(=O)c2ncn3c2c(=O)[nH]c2ccccc23)CC1	inconclusive: 47%
Cc1nn(C(C)(C)C)c(NC(=O)c2ccc(Cl)cc2)c1Br	inactive: -5.9%
CC(=O)Nc1ccc(NC(=O)COC(=O)c2ccc([N+](=O)[O-])o2)cc1	inactive: -8.78%
CCCCNC(=O)C1(C)CCC(=O)N1CCc1c[nH]c2ccccc12 (stereo unspecified)	inconclusive: 25.7%
CN(C(=O)c1cccc(NC(=O)Cc2cccc(NC(=O)C3CCCN(C(=O)C4CCCC4)C3)c2)c1)C1CC1 (stereo unspecified)	inconclusive: 41.8%
COc1ccc(C)cc1S(=O)(=O)NC1CC1	inconclusive: 22.7%
CCOc1ccc(NC(=O)CN(C)C(=O)C2CCCO2)cc1OCC (stereo unspecified)	inconclusive: 44.8%
C[C@H](CO)N1C[C@H](C)[C@@H](CN(C)C(=O)CCC(F)(F)F)OCc2ccccc2-c2c(n(C)c3ccccc23)C1=O	inactive: -7.42%
Cc1cc(C)cc(C(=O)NC(CC(N)=O)c2ccc(N3CCC(Cc4ccccc4)CC3)c([N+](=O)[O-])c2)c1 (stereo unspecified)	active: 123%
S=C1NC2=C(CCCC2=C2SCCCS2)C(c2ccccc2)N1 (stereo unspecified)	inactive: -3.3%
O=C(c1ccccc1)N1C[C@@H]2[C@H](c3ccccc31)[C@@H](CO)N2C(=O)CN1CCOCC1	inactive: -5.89%
COC(=O)C[C@H]1CC[C@H]2[C@@H](COc3ccc(NC(=O)c4cnccn4)cc3C(=O)N2C)O1	active: 144%
COc1ccc(-c2cc(C(=O)N/N=C/c3cc(OC)c(OC)cc3OC)c3ccccc3n2)cc1	inactive: 0.11%
COC(=O)C1=C(C)N(Cc2cccc(C(F)(F)F)c2)C(=NCc2ccc3c(c2)OCO3)NC1c1cccc(C(F)(F)F)c1 (stereo unspecified)	inactive: 4.7%
O=C(Nc1ccc(Nc2ccccc2)cc1)c1ccc(Br)cc1	inactive: -5.43%
Cc1cc(NC(=O)CSCC(=O)Nc2nc3c(C)cccc3s2)no1	inconclusive: 62.4%
CC(C)C[C@H]1CN([C@@H](Cc2ccc(O)cc2)CN2CCC[C@H]2CN2C(=O)C(=O)NC[C@@H]2Cc2ccccc2)C(=O)C(=O)N1CCc1ccccc1	inactive: -10.6%
COC(=O)C[C@H]1CC[C@@H]2[C@@H](COc3ccc(NC(=O)c4ccc(F)c(F)c4)cc3C(=O)N2C)O1	inactive: -2.71%
Cc1cc(NS(=O)(=O)c2ccc(NC(=O)CCCOc3cccc(C)c3C)cc2)no1	inconclusive: 26%
NS(=O)(=O)c1cc2c(cc1Cl)NCNS2(=O)=O	inconclusive: 34.7%
CO[C@@H](CN(C)C(=O)C1CCOCC1)[C@H](C)CN(C(=O)Nc1ccc(F)cc1)[C@H](C)CO	inactive: -6.3%
CCC(=O)N1CCCCN2[C@H](CO)[C@@H](c3ccc(-c4ccc(F)cc4)cc3)[C@H]2C1	active: 31.1%

SMILES	CPE inhibition
OC(c1ccc2c(c1)OCO2)c1ncc(-c2ccccc2)[nH]1 (stereo unspecified)	inconclusive: 20.8%
COc1ccccc1S(=O)(=O)N(C)C[C@H]1OCc2cnnn2CCCC(=O)N([C@H](C)CO)C[C@H]1C	inconclusive: 37.4%
Cc1ccc(NC(=O)Cn2cccc2C2=NC(c3ccccc3)CO2)cc1C (stereo unspecified)	active: 103%
CCCCN(Cc1ccccc1)S(=O)(=O)c1cc2c(cc1Br)CC(C)N2C(C)=O (stereo unspecified)	inconclusive: 35%
Cc1ccc(S(=O)(=O)Nc2ccc3c(c2)CC(=O)N([C@H](C)CO)C[C@H](C)[C@@H](CN(C)S(=O)(=O)c2ccccc2)O3)cc1	inconclusive: 23.2%
CC(=O)C1=C(C)N(Cc2ccc(Cl)cc2)C(=S)NC1c1ccc(Cl)cc1 (stereo unspecified)	active: 55%
O=C1C=C(Nc2cccc3cccnc23)c2ccccc2C1=O	inconclusive: 20.2%
CCOC(=O)C[C@H]1c2ccccc2S(=O)(=O)N1c1ccccc1	active: 37%
O=C(Cc1ccc(Cl)cc1)NNc1c(F)c(F)cc(F)c1F	inconclusive: 53.4%
COc1ccc(CNC(=O)Cn2cnc3c(OCc4ccccc4)ncnc32)cc1	inconclusive: 25.3%
Cc1cccc(-c2n[nH]c(=S)n2/N=C/c2cccs2)c1	inactive: -0.311%
Cc1ccc(NC(=O)c2cc3ccccc3o2)nc1	inconclusive: 41.3%
N#C[C@@H]1[C@H](c2ccccc2)[C@H](CO)N1C(=O)c1ccccc1F	inconclusive: 31.9%
O=C(Nc1nccs1)c1ccc(Cl)nc1	inconclusive: 29.7%
Cc1ccc2cc(CN(Cc3ccccc3)Cc3nnnn3C3CCCC3)c(=O)[nH]c2c1	inactive: 3.38%
Cc1ccc(NC(=O)NNC(=O)C2CC(c3cccs3)=NO2)cc1 (stereo unspecified)	inconclusive: 33%
CCC(=O)N1CC[C@@H]2[C@H](CO)Nc3ccc(C#Cc4ccc(OC)cc4)cc3[C@@H]21	inconclusive: 23.7%
C[C@H](CO)N1C[C@H](C)[C@H](CN(C)Cc2ccccc2)OCCCC[C@H](C)Oc2ccc(NS(=O)(=O)c3cccs3)cc2C1=O	inactive: -3.04%
Cn1cnc(S(=O)(=O)N2CCCCN3[C@H](C2)[C@@H](c2ccc(-c4ccccc4F)cc2)[C@@H]3CO)c1	inconclusive: 29.4%
Cc1[nH]c(=O)[nH]c(=O)c1S(=O)(=O)Nc1ccc(Br)cc1F	inconclusive: 35.6%
CO[C@H]1CN(C)C(=O)c2cc(NC(=O)c3ccc(-c4ccccc4)cc3)ccc2OC[C@H](C)NC[C@@H]1C	active: 22.8%
CCC(=O)N1[C@@H]2Cn3c(ccc(-c4cccnc4)c3=O)[C@H]1[C@@H](C(=O)N1CCc3ccccc3C1)[C@@H]2CO	inactive: 1.33%
CO[C@H]1CN(C)C(=O)c2cc(NS(=O)(=O)c3ccccc3)ccc2OC[C@H](C)N(C)C[C@H]1C	active: 27%
CO[C@H]1CN(C)C(=O)c2ccc(NC(=O)C3CC3)cc2OC[C@H](C)N(C(=O)CN2CCOCC2)C[C@H]1C	inactive: -0.655%
COc1ccc2c(c1)sc(N)[n+]2Cc1cc(C)cc2cccnc12	active: 70.6%
O=C(CCN1CCCCC1)NCC[C@@H]1CC[C@@H](NC(=O)Nc2ccc(Cl)cc2)[C@H](CO)O1	inconclusive: 60.3%

4 neighbouring compounds already listed, for reference:
SMILES	CPE inhibition
COc1ccc(CNC(=O)Cn2cnc3c(OCc4ccccc4)ncnc32)cc1	inconclusive: 25.3%
Cc1cccc(-c2n[nH]c(=S)n2/N=C/c2cccs2)c1	inactive: -0.311%
Cc1ccc(NC(=O)c2cc3ccccc3o2)nc1	inconclusive: 41.3%
N#C[C@@H]1[C@H](c2ccccc2)[C@H](CO)N1C(=O)c1ccccc1F	inconclusive: 31.9%

Carrying on:

SMILES	CPE inhibition
CCOc1ccc(C(=O)NCC2CCN(CC3CCCCC3)CC2)cc1	inconclusive: 26.4%
COc1cccc(-c2nc3ccc(C(=O)NC(C)Cc4cccnc4)cc3o2)c1 (stereo unspecified)	inconclusive: 20.9%
COc1ccc(CN2CCNC(=O)C2CC(=O)N(C)Cc2nc(C)cs2)c(OC)c1 (stereo unspecified)	inconclusive: 26.2%
CC(C)CC#Cc1ccc2c(c1)O[C@H](CN(C)C)[C@H](C)CN([C@H](C)CO)S2(=O)=O	inconclusive: 21.5%
COc1ccccc1OCC(=O)Nc1ccc(S(=O)(=O)Nc2nc(C)cc(C)n2)cc1	inconclusive: 62.6%
N#Cc1cccc(-c2ccc([C@H]3[C@H]4CN(C(=O)Nc5cccc(F)c5)CCCCN4[C@H]3CO)cc2)c1	inconclusive: 21.9%
N#CC(Cc1ccccc1OC(F)F)c1nc2ccccc2[nH]1 (stereo unspecified)	active: 24.6%
CCNC(=O)C[C@@H]1CC[C@H]2[C@@H](COC[C@H](O)CN2Cc2ccccc2F)O1	inactive: -4.62%
COc1ccc(S(=O)(=O)N2CCOCC2)cc1NC(=O)c1c(C)noc1C	inconclusive: 36.9%
O=C(COc1ccc(Cl)cc1)NNC(=O)c1ccc2c(=O)n3c(nc2c1)CCC3	inconclusive: 68.6%
COC(=O)c1sc(N2C(=O)C(O)=C(C(=O)c3ccc(C)o3)C2c2ccc(OC)c(OC)c2)nc1C (stereo unspecified)	inconclusive: 20.1%
COCC#Cc1ccc([C@@H]2[C@H]3CN(C(=O)C4CCCC4)CC(=O)N3[C@H]2CO)cc1	inconclusive: 21.6%
COc1ccc(C(=O)CC(=O)c2ccccc2O)cc1OC	inactive: -1.34%
Cc1cccc(-n2c(C)cc(/C=C3/C(=N)N4C(c5ccccc5)=CSC4=NC3=O)c2C)c1	inconclusive: 24.9%
O=C(COC(=O)c1ccco1)NCc1ccc(Cl)cc1	inconclusive: 38.7%
C#CCNS(=O)(=O)c1ccc(F)cc1Br	inconclusive: 26.9%
Cc1ccc(S(=O)(=O)N2C/C=C\CN(S(=O)(=O)c3ccccc3Br)CC2)cc1	inactive: 14.2%
CC(C)NC(=O)N(C)C[C@H]1Oc2ccc(NS(=O)(=O)c3ccc(F)cc3)cc2CC(=O)N([C@H](C)CO)C[C@@H]1C	inconclusive: 29%
COc1ccccc1-c1cccc(-c2nc(C(=O)Nc3nccs3)cc3c2[C@H](CCO)N(C(=O)CC2CC2)C3)c1	inactive: -0.409%
COC(=O)CSc1ncnc2c(C)csc12	inconclusive: 24.7%
O=C(Nc1ccc(F)c(Cl)c1)c1cc(C2CCCCN2C(=O)CCc2ccccc2)on1 (stereo unspecified)	inconclusive: 68.1%
O=C(CCc1nc2ccccc2c(=O)[nH]1)NCCN1C(=O)S/C(=C\c2ccc(Cl)cc2Cl)C1=O	inconclusive: 42.3%
O=C(Nc1ccc(F)cc1)C1CCCN(S(=O)(=O)c2ccc3[nH]c(=O)ccc3c2)C1 (stereo unspecified)	active: 115%
CC(C)CC#Cc1ccc2c(c1)O[C@@H](CN(C)C(=O)C1CCCCC1)[C@@H](C)CN([C@H](C)CO)S2(=O)=O	inactive: -4.52%
